For at least one compound, name, drawing or mass did not settle the structure.
Key:
[1] = Accelerated stress test of tadalafil solution in PEG600 (colour); type: physicochemical; details: 2% by weight in PEG600, 40° C./75% R.H. for 2 weeks
[2] = Storage of tadalafil solution complexed in HPBCD (browning); type: physicochemical

SMILES: CN1CC(=O)N2[C@H](c3ccc4c(c3)OCO4)c3[nH]c4ccccc4c3C[C@@H]2C1=O [tadalafil]
- colour of the solution [1]: evident yellow colour
- browning of the solution under storage [2]: did not prevent the browning
